Values of other authors in patent US20200247815A1, “PYRAZOLYL-CONTAINING TRICYCLIC DERIVATIVE, PREPARATION METHOD THEREFOR AND USE THEREOF” (Jiangsu Hansoh Pharmaceutical Group Co., Ltd., priority 2017, published 2020).
For at least one compound, name, drawing or mass did not settle the structure.

Tested on: advanced melanoma
Conditions: cited from earlier work

Structure (SMILES): CCCS(=O)(=O)Nc1ccc(F)c(C(=O)c2c[nH]c3ncc(-c4ccc(Cl)cc4)cc23)c1F [Vemurafenib]
- Time for which efficacy is maintained: 8-9 months
